Among the data in article PMC9193967 are binding values, retold here.

This assay addresses T1, receptor-interacting protein kinase 1 (RIPK1) (mouse (endogenous in heart tissue)) (UniProt Q60855).
T1 sequence: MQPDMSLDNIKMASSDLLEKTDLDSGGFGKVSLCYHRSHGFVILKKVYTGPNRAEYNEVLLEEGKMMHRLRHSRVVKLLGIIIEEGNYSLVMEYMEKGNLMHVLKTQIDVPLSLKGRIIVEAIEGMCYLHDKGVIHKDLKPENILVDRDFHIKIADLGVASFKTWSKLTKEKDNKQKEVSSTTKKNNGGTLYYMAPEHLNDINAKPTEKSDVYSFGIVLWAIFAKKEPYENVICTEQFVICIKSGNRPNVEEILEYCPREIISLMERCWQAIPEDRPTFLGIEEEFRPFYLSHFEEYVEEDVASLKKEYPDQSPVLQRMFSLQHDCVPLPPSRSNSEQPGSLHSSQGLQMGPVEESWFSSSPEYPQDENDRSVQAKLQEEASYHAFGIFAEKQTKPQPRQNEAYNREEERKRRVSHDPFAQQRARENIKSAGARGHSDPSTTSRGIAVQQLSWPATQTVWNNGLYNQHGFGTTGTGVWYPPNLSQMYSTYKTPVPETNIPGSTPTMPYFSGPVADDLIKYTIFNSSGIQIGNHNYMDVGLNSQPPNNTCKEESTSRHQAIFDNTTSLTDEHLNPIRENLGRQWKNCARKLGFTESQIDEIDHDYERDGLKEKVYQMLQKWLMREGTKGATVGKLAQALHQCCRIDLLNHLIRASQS
In words: co-IP; anti-RIPK1 antibody (610459, BD Bioscience) on Dynabeads Protein G, mouse heart tissue lysate added overnight in the cold room; blot for MG53; lysis buffer 50 mM Tris-HCl pH 7.5, 150 mM NaCl, 10% glycerol, 1% Triton X-100, 1 mM EDTA; infarct (I/R) and non-infarct areas of wt hearts.

No constants are given. Whether binding was seen depends on the method and setting. Binding seen in cells or lysates may run through a third protein. Some entries that bind do so weakly or less than the wild type.

B1: mitsugumin 53 (MG53) (protein, UniProt Q1XH17 1-477)
chain: MSAAPGLLRQELSCPLCLQLFDAPVTAECGHSFCRACLIRVAGEPAADGTVACPCCQAPTRPQALSTNLQLSRLVEGLAQVPQGHCEEHLDPLSIYCEQDRTLVCGVCASLGSHRGHRLLPAAEAQARLKTQLPQQKMQLQEACMRKEKTVAVLEHQLVEVEETVRQFRGAVGEQLGKMRMFLAALESSLDREAERVRGDAGVALRRELSSLNSYLEQLRQMEKVLEEVADKPQTEFLMKFCLVTSRLQKILSESPPPARLDIQLPVISDDFKFQVWKKMFRALMPALEELTFDPSSAHPSLVVSSSGRRVECSDQKAPPAGEDTRQFDKAVAVVAQQLLSQGEHYWEVEVGDKPRWALGVMAADASRRGRLHAVPSQGLWLLGLRDGKILEAHVEAKEPRALRTPERPPARIGLYLSFADGVLAFYDASNPDVLTPIFSFHERLPGPVYPIFDVCWHDKGKNAQPLLLVGPEQEQA
Take B1: the binding result is “binds”.
